In the supplement of paper PMC10849652:
Some of the results follow.

Amino acid sequences for entries named in this document (tags omitted). A change or cut given only in a name is not applied to a line headed by its entry.
UniProt P10109: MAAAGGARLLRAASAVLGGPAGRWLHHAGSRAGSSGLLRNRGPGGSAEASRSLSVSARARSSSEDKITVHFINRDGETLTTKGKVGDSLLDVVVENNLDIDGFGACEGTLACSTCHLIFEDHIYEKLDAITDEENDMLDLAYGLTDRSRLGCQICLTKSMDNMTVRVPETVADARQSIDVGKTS
UniProt P22087: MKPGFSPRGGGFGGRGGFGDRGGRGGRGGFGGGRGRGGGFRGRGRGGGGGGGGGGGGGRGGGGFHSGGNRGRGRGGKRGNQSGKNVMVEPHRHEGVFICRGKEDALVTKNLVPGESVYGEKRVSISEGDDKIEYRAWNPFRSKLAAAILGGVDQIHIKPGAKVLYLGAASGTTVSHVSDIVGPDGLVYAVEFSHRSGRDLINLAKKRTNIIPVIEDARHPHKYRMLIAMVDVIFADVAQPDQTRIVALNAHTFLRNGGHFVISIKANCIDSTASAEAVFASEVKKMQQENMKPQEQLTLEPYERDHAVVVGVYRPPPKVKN
UniProt P37268: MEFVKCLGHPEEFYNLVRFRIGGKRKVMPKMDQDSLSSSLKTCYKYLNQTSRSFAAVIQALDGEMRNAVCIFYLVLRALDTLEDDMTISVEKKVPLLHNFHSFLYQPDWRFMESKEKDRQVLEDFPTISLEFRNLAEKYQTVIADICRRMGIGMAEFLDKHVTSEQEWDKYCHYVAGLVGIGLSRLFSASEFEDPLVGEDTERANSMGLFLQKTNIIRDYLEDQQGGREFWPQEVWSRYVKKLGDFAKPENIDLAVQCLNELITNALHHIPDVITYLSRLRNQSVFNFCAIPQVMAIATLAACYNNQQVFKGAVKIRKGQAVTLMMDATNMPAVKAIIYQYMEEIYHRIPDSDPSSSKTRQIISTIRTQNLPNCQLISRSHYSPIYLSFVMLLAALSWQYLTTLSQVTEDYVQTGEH
UniProt Q9NSD9: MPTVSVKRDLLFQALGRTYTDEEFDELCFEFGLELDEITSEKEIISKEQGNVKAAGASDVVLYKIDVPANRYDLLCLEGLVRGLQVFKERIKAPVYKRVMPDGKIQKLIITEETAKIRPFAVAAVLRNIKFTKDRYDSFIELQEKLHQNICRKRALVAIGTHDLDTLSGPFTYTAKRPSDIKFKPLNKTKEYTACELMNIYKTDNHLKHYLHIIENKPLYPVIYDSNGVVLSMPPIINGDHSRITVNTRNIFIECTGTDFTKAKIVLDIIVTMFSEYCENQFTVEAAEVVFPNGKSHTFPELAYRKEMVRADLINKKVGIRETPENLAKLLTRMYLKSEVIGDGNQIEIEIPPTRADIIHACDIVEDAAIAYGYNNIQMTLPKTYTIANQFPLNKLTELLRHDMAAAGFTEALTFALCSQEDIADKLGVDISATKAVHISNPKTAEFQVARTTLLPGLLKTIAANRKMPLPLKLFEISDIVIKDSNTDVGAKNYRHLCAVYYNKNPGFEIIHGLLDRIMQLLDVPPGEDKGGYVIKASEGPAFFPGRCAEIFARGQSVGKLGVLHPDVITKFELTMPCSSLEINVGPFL
UniProt Q8N8J7: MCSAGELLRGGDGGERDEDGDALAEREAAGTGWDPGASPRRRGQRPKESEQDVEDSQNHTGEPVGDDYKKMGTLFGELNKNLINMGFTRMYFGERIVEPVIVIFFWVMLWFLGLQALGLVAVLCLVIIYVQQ
UniProt Q9UKT5: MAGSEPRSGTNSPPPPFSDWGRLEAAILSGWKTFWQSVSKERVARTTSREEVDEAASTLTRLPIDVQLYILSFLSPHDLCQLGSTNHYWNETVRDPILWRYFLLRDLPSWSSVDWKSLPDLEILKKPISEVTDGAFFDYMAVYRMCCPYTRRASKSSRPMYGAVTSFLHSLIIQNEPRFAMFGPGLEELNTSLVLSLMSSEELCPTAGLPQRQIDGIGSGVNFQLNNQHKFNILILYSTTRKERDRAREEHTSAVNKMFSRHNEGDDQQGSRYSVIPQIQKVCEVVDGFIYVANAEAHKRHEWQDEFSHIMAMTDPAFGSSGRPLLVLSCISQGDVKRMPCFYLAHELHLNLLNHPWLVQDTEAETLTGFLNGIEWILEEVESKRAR
UniProt Q96IG2: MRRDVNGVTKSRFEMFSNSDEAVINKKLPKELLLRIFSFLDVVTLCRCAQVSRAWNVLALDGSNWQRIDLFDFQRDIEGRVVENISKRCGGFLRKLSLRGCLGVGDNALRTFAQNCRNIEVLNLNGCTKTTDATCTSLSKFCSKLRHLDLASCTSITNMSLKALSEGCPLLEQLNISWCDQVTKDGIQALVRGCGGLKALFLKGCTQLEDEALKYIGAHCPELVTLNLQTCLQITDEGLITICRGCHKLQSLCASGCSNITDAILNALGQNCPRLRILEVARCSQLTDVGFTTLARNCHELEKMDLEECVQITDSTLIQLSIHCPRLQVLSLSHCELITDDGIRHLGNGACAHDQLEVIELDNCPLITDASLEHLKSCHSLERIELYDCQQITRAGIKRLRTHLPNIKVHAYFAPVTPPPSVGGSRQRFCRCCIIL
UniProt Q86UX7, whole entry, looked up: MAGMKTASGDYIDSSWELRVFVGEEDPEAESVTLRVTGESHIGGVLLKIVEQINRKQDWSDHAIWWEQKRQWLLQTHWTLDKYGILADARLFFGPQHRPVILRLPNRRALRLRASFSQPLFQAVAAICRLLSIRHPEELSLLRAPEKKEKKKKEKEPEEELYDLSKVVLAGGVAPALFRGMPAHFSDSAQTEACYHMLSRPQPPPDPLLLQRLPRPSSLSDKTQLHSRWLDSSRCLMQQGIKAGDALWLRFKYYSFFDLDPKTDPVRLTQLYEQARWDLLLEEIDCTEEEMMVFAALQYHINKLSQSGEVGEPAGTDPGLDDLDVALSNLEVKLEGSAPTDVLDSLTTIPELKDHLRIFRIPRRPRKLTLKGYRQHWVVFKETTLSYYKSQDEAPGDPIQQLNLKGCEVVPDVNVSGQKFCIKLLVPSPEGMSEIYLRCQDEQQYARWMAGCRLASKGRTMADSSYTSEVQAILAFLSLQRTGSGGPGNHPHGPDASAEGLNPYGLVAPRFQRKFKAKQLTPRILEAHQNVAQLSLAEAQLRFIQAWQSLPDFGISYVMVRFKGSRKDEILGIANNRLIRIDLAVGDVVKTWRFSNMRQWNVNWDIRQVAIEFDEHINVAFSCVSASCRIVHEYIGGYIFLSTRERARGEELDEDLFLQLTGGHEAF
UniProt Q6P4F2: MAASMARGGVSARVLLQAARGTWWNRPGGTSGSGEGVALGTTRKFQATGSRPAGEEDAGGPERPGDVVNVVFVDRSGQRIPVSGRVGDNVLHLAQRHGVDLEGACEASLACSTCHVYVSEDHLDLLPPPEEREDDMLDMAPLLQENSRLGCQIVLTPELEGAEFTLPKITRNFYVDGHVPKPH
UniProt O75369, whole entry, looked up: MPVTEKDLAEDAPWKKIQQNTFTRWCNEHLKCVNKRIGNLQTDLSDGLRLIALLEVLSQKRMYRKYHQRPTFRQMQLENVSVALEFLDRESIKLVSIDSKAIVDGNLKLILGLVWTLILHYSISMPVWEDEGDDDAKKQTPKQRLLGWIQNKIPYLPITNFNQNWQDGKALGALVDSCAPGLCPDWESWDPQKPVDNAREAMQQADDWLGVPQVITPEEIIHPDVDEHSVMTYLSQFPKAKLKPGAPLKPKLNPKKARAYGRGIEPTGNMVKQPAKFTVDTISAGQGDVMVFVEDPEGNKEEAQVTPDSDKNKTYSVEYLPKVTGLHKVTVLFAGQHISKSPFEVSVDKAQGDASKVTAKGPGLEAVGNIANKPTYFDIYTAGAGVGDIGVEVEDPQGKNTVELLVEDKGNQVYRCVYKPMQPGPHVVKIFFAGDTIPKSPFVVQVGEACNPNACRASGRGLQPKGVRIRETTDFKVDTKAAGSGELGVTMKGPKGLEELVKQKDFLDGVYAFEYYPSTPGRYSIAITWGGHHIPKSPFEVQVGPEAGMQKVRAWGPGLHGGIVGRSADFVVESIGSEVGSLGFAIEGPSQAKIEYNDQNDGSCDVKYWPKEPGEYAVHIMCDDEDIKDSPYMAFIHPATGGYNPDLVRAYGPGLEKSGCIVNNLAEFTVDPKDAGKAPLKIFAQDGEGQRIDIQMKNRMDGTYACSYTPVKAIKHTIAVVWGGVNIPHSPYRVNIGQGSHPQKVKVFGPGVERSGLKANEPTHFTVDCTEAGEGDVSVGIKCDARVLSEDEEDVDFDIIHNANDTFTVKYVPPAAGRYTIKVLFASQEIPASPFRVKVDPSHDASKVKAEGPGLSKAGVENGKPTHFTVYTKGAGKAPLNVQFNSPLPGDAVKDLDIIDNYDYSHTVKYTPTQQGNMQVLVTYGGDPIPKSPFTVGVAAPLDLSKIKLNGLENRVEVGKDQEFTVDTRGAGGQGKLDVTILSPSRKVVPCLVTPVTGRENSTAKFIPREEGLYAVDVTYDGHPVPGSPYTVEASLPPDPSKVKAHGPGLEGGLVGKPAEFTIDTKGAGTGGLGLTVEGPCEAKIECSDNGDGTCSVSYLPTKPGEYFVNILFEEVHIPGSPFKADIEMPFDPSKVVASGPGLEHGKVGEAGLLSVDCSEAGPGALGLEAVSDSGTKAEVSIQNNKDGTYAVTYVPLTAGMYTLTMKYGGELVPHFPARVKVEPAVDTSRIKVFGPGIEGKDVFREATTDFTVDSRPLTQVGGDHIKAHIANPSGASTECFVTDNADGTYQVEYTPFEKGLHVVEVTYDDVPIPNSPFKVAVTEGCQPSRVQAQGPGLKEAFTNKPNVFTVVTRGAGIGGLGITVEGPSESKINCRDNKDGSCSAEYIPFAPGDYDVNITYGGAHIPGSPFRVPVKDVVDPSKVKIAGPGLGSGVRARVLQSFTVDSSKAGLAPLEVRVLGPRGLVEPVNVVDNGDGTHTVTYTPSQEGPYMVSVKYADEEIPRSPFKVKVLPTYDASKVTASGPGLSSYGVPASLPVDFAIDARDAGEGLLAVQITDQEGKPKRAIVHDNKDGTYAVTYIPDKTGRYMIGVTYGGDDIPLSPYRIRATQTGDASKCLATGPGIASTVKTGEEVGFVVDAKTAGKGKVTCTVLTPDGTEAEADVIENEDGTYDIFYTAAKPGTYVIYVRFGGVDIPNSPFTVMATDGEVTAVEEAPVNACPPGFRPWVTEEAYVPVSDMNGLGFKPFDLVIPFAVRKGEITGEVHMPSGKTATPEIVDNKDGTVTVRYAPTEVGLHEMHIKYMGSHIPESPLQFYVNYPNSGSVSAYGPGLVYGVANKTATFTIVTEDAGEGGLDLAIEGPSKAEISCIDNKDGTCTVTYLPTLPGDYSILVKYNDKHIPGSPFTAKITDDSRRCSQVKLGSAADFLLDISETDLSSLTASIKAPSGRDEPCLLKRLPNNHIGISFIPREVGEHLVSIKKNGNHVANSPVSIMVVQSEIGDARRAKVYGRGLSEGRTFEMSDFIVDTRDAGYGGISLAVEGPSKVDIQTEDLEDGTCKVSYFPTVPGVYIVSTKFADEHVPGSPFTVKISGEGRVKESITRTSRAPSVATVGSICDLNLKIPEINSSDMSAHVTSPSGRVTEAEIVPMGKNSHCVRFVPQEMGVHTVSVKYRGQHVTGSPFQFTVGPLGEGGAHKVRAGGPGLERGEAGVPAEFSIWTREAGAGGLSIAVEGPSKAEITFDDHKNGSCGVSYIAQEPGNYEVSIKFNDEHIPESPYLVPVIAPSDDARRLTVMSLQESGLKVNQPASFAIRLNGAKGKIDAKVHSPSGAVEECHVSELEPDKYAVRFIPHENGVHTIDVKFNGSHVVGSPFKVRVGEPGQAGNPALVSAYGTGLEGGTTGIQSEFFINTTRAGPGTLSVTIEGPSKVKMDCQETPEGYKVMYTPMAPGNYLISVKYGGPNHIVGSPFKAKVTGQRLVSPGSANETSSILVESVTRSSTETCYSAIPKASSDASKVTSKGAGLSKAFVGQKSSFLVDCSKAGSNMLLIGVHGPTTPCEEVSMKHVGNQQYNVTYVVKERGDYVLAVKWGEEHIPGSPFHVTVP
UniProt P62942, whole entry, looked up: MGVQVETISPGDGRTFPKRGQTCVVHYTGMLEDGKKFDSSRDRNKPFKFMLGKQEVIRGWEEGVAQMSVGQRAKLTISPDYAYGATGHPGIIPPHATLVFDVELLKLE
UniProt P22570: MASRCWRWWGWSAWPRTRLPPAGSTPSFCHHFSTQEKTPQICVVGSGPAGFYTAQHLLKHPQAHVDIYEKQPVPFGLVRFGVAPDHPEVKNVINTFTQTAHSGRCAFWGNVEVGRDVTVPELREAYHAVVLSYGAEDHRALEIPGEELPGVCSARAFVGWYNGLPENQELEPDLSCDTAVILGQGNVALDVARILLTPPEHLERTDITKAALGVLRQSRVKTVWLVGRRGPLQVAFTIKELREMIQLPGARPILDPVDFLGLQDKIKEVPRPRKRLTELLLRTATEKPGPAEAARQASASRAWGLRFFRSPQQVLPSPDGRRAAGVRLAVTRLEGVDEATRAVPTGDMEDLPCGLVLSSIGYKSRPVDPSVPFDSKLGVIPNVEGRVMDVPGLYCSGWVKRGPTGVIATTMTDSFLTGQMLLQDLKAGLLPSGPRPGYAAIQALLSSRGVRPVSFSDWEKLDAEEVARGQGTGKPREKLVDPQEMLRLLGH

How the values were obtained:
Assay in all cases: log2 fold change, soluble protein after heating vs DMSO (PISA); higher = thermal stabilisation; K562 cells, 10 uM, 30 min; active = over 0.2 and 3.5 SD of the protein, either way, in both replicates (recomputed)
[1] = compound: COC1=CC=C(C=C1)CN2C=CC3=C2C=C(C=C3)C(=O)NO
In short: (§1)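 Soluble protein was defined as the supernatant after 21,000xg for 90 min. It came from K562 cells at 2×10^6 cells/mL given 10 μM compound for 30 min, heated in aliquots for 3 min across 48°C-58°C, pooled, and extracted in PBS with 0.5% NP-40 at 4°C, and was quantified by TMTpro 16plex LC-MS/MS with equalised channel sums. Thermal stability against control samples, from duplicates, is reported as log2 fold change.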

[2] = compound: CON(C)C(=O)N1N=C(c2cc(F)ccc2F)S[C@@]1(CCCN)c1ccccc1 [filanesib]
In short: as §1

[3] = compound: CO[C@H]1C[C@@H]2CC[C@@H](C)[C@@](O)(O2)C(=O)C(=O)N2CCCC[C@H]2C(=O)O[C@H]([C@H](C)C[C@@H]2CC[C@H](n3cnnn3)[C@H](OC)C2)CC(=O)[C@H](C)/C=C(\C)[C@@H](O)[C@@H](OC)C(=O)[C@H](C)C[C@H](C)/C=C/C=C/C=C/1C [zotarolimus]
In short: as §1

[4] = compound: COc1cc(C(=O)O)ccc1NC(=O)[C@@H]1N[C@@H](CC(C)(C)C)[C@](C#N)(c2ccc(Cl)cc2F)[C@H]1c1cccc(Cl)c1F [idasanutlin]
In short: as §1

[5] = compound: COc1cc(Nc2ncc3c(n2)-c2ccc(Cl)cc2C(c2c(F)cccc2OC)=NC3)ccc1C(=O)O [alisertib]
In short: as §1

[6] = compound: COc1cc2nc(-c3cc(F)ccc3O)nc(N[C@@H]3CNC[C@H]3C(C)(C)O)c2cc1OC
In short: as §1

[7] = compound: COc1cc2ncnc(Nc3ccc(F)c(Cl)c3)c2cc1OCCCN1CCOCC1 [gefitinib]
In short: as §1

[8] = compound: COc1cccc2cc(-c3nc([C@H]4CC[C@H](C(=O)O)CC4)n4ncnc(N)c34)[nH]c12
In short: as §1

[9] = compound: CS(=O)(=O)CCNCc1ccc(-c2ccc3ncnc(Nc4ccc(OCc5cccc(F)c5)c(Cl)c4)c3c2)o1 [lapatinib]
In short: as §1

[10] = compound: CS(=O)(=O)N1CCN(Cc2cc3nc(-c4cccc5[nH]ncc45)nc(N4CCOCC4)c3s2)CC1 [pictilisib]
In short: as §1

Measured: log2 fold change

FKBP5 (UniProt Q13451)
inactive: [1] 0.031 | [2] 0.001 | [3] 0.152 | [4] -0.057 | [5] -0.062 | [6] -0.006 | [7] 0.068 | [8] -0.093 | [9] -0.044 | [10] -0.038

FDX1 (UniProt P10109)
inactive: [1] -0.08 | [2] -0.132 | [3] 0.021 | [4] 0.006 | [5] 0.027 | [6] 0.065 | [7] -0.01 | [8] -0.054 | [9] -0.022 | [10] 0.029

FASN (UniProt P49327)
inactive: [1] 0.068 | [2] -0.094 | [3] 0.033 | [4] -0.082 | [5] -0.066 | [6] 0.01 | [7] -0.014 | [8] 0.005 | [9] 0.017 | [10] 0.018

FBL (UniProt P22087)
inactive: [1] -0.154 | [2] 0.664 | [3] 0.034 | [4] 0.441 | [5] 0.006 | [6] 0.077 | [7] 0.059 | [8] -0.069 | [9] 0.11 | [10] -0.093

FDFT1 (UniProt P37268)
inactive: [1] 0.123 | [3] 0.014 | [4] 0.013 | [5] 0.008 | [6] -0.052 | [7] -0.01 | [8] 0.042 | [9] -0.023 | [10] 0
active: [2] 0.401

FARSB (UniProt Q9NSD9)
inactive: [1] -0.027 | [2] -0.039 | [3] 0.028 | [4] -0.044 | [5] -0.055 | [6] 0.009 | [7] 0.024 | [8] -0.02 | [9] -0.006 | [10] 0.035

FIS1 (UniProt Q9Y3D6)
inactive: [1] -0.016 | [2] -0.008 | [3] 0.153 | [4] -0.047 | [5] -0.034 | [6] 0.061 | [7] -0.025 | [8] 0.069 | [9] 0.008 | [10] 0.071

FAM219A (UniProt Q8IW50)
inactive: [1] -0.033 | [2] 0.014 | [3] -0.033 | [4] -0.087 | [5] 0.104 | [6] 0.064 | [7] 0.25 | [8] -0.057 | [9] -0.029

FAM241A (UniProt Q8N8J7)
active: [2] -0.828
inactive: [1] 0.226 | [3] -0.045 | [4] 0.018 | [5] -0.038 | [6] 0.042 | [7] 0.044 | [8] -0.006 | [9] -0.038 | [10] 0

FBXW9 (UniProt Q5XUX1)
inactive: [1] -0.045 | [2] -0.072 | [3] 0.021 | [4] -0.031 | [5] 0.05 | [6] -0.015 | [7] 0.016 | [8] 0.038 | [9] -0.009

FBXO4 (UniProt Q9UKT5)
inactive: [1] -0.019 | [2] 0.063 | [3] -0.007 | [4] -0.034 | [5] -0.112 | [6] -0.032 | [7] -0.008 | [8] 0.05 | [9] 0.03 | [10] 0.026

FBXO30 (UniProt Q8TB52)
inactive: [1] -0.04 | [2] -0.064 | [3] -0.039 | [4] -0.01 | [5] 0.017 | [6] -0.015 | [7] -0.035 | [8] 0.007 | [9] 0.011 | [10] -0.082

FBXO3 (UniProt Q9UK99)
inactive: [1] 0.011 | [2] -0.053 | [3] -0.022 | [4] 0.032 | [5] -0.071 | [6] -0.013 | [7] 0.011 | [8] 0.025 | [9] 0.028 | [10] -0.023

FBXL20 (UniProt Q96IG2)
inactive: [1] 0.225 | [2] -0.017 | [3] 0.095 | [4] -0.085 | [5] -0.017 | [6] 0.087 | [7] 0.097 | [8] -0.047 | [9] 0.015 | [10] -0.037

FH (UniProt P07954)
inactive: [1] 0.002 | [2] -0.141 | [3] 0.013 | [4] -0.047 | [5] -0.042 | [6] 0.02 | [7] 0 | [8] 0.031 | [9] -0.02 | [10] 0.01

FERMT3 (UniProt Q86UX7)
inactive: [1] 0.046 | [2] -0.037 | [3] 0.033 | [4] -0.068 | [5] -0.104 | [6] 0 | [7] -0.007 | [8] 0.001 | [9] -0.006 | [10] 0.009

FANCD2 isoform 1 (UniProt Q9BXW9)
inactive: [1] 0.054 | [2] -0.078 | [3] -0.007 | [4] -0.062 | [5] -0.037 | [6] 0.053 | [7] -0.033 | [8] 0.031 | [9] -0.025 | [10] 0.123

FAM234A (UniProt Q9H0X4)
inactive: [1] -0.104 | [2] 0.002 | [3] -0.015 | [4] 0.015 | [5] 0.211 | [6] 0.223 | [7] -0.008 | [8] -0.014 | [9] -0.078

FDX2 (UniProt Q6P4F2)
inactive: [1] -0.051 | [2] -0.022 | [3] 0.003 | [4] 0.073 | [5] -0.053 | [6] -0.063 | [7] 0.017 | [8] 0.014 | [9] -0.049 | [10] -0.146

FBXL12 (UniProt Q9NXK8)
inactive: [1] 0.175 | [2] -0.037 | [3] 0.041 | [4] -0.062 | [5] -0.001 | [6] -0.004 | [7] 0.012 | [8] -0.007 | [9] -0.046 | [10] -0.006

Taken from above (2 entries):
FANCD2 isoform 1 (UniProt Q9BXW9)
inactive: [1] 0.054 | [2] -0.078 | [3] -0.007 | [4] -0.062 | [5] -0.037 | [6] 0.053 | [7] -0.033 | [8] 0.031 | [9] -0.025 | [10] 0.123

FAM234A (UniProt Q9H0X4)
inactive: [1] -0.104 | [2] 0.002 | [3] -0.015 | [4] 0.015 | [5] 0.211 | [6] 0.223 | [7] -0.008 | [8] -0.014 | [9] -0.078

The listing continues:

FCSK isoform 2 (UniProt Q8N0W3)
inactive: [1] 0.047 | [2] -0.021 | [3] -0.008 | [4] -0.055 | [5] -0.153 | [6] -0.002 | [7] 0.04 | [8] 0.04 | [9] 0.059 | [10] 0.004

FLNB isoform 8 (UniProt O75369)
inactive: [1] 0.009 | [2] 0.007 | [3] 0.036 | [4] -0.022 | [5] 0.016 | [6] 0.045 | [7] 0.002 | [8] -0.012 | [9] -0.023 | [10] 0.062

FANCB (UniProt Q8NB91)
inactive: [1] -0.03 | [2] -0.02 | [3] -0.038 | [4] -0.012 | [5] 0.119 | [6] -0.017 | [7] 0.03 | [8] 0.035 | [9] 0.06 | [10] -0.078

FKBP1A (UniProt P62942)
inactive: [1] -0.009 | [2] -0.052 | [3] 0.189 | [4] -0.09 | [5] -0.073 | [6] 0.119 | [7] -0.027 | [8] -0.004 | [9] -0.032 | [10] 0.387

FKBP4 (UniProt Q02790)
inactive: [1] 0.015 | [2] -0.066 | [3] 0.077 | [4] -0.048 | [5] -0.018 | [6] 0.031 | [7] 0.008 | [8] 0.009 | [9] -0.062 | [10] 0.027

FAM98B (UniProt Q52LJ0)
inactive: [1] -0.013 | [2] 0.256 | [3] 0.128 | [4] -0.037 | [5] 0.071 | [6] 0.006 | [7] -0.02 | [8] -0.174 | [9] -0.029 | [10] -0.052

FDXR isoform 7 (UniProt P22570)
inactive: [1] -0.005 | [2] -0.122 | [3] 0.021 | [4] -0.179 | [5] -0.019 | [6] 0.06 | [7] 0.048 | [8] 0.074 | [9] -0.057 | [10] 0.201
